The other results are listed elsewhere or left out. These are further read-outs of the screen, such as a control signal, another cell line or another target. No call is given for them. Most of these compounds were active or inconclusive in the main read-out, so they are no random draw. Potencies come from curve fits of mixed quality, noted in brackets.
Assay: qHTS Assay for Lipid Storage Modulators in Drosophila S3 Cells;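 on cell number change: cells counted by Cell Tracker Red CMTPX staining in the red channel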
Conditions: BODIPY lipid droplet fluorescence, 18-24 h; for cell number change: measured here: cell count max response, cells fed with added oleic acid
In short: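 Drosophila S3 cells got compounds at several concentrations plus oleic acid (400 uM solution). Laser-scanning cytometry with 488 nm excitation read lipid droplets at 500-530 nm and cells at 575-640 nm. Percent activity was relative to 20 uM Triacsin C.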

[1] = measured here: lipid fluorescence (Fed channel) AC50, cells fed with added oleic acid
[2] = measured here: cell number channel AC50, cells fed with added oleic acid

Compound	cell number change [%]	AC50 [1]	AC50 [2]
Cc1cc(C)n2nc(SCc3cccc(S(=O)(=O)N(C)C)c3)nc2n1	-0.704	0.58 µM [rising, single point]	–
COc1ccc(CCOC(=O)c2ccc(N)c([N+](=O)[O-])c2)cc1	-22.3	–	–
CC1=CC(c2ccccc2)n2nnnc2N1 (stereo not given)	-9.38	0.00461 µM [falling, full curve, poor fit]	–
COc1cc(=O)n(C)c2c(OCC(O)C(C)(C)O)cccc12 (stereo not given)	50	8.2 µM [rising, partial curve]	20.6 µM [rising, single point]
NC(=O)CC(NC(=O)c1ccccc1)c1ccc(NC2CCCCC2)c([N+](=O)[O-])c1 (stereo not given)	-3.18	29.1 µM [falling, single point]	–
CC(=O)c1ccc(OCCCC(=O)Nc2cc(S(=O)(=O)N(C)C)ccc2C)cc1	-19.5	32.6 µM [falling, single point]	–
CC(Oc1ccccc1)C(=O)Nc1ccc(S(=O)(=O)Nc2nccs2)cc1 (stereo not given)	-22.2	–	–
O=C(NCc1cn(-c2ccccc2)nc1-c1ccc(F)cc1)c1cccc([N+](=O)[O-])c1	-6.44	29.1 µM [falling, single point]	–
S=C(Nc1ccc(Br)cc1Cl)Nn1cnnc1	-40.8	–	–
CC1CCCCC1NC(=O)CCNC(=O)N1CC(=O)Nc2ccccc21 (stereo not given)	17.9	18.4 µM [falling, single point]	6.51 µM [rising, single point]
O=S1(=O)[C@H]2C[C@@H]3C=C[C@@]2(CN1Cc1ccccc1F)O3	9.28	5.8 µM [rising, full curve]	–
Oc1[nH]c2ccccc2c1N=Nc1ccccc1F	1.11	–	–
CCOC(=O)c1ccc(N2CCN(c3ccccc3F)CC2)c(NC(=O)Nc2cccc(OC)c2)c1	-0.74	0.231 µM [rising, partial curve]	–
CCOC(=O)/C=c1\s/c(=C\c2sccc2C)c(=O)n1CC(=O)NCc1ccc(C)cc1	36.9	–	13 µM [rising, single point]
CCOC(=O)c1sc(NC(=O)c2cc(S(=O)(=O)N3CCOCC3)ccc2C)nc1C	4.12	13 µM [rising, partial curve, poor fit]	–
O=[N+]([O-])c1ccc(NC2CCN(Cc3ccccc3)CC2)c([N+](=O)[O-])c1	-16.3	23.1 µM [falling, single point]	–
CC(C)(C)NC(=O)CCCSc1nc2ccccc2s1	-23.8	29.1 µM [falling, single point]	–
CSc1nc(N2CCOCC2)nc2ccc(C)cc12	-36.3	8.2 µM [falling, single point]	20.6 µM [falling, single point]
Cc1ccc(-c2csc3ncnc(Sc4nnc(CN5CCCCCC5=O)o4)c23)cc1	-21.8	29.1 µM [falling, single point]	–

Compound	cell number change [%]	AC50 [1]	AC50 [2]
CCOc1ccc(S(=O)(=O)NCCC(=O)N(C)Cc2ccc(C)o2)cc1	31.7	4.61 µM [rising, full curve]	4.11 µM [rising, full curve]
O=C(c1ccc2c(c1)OCCO2)N1CCN(c2ccc([N+](=O)[O-])cc2)CC1	43.6	16.4 µM [rising, single point]	16.4 µM [rising, single point]
CCCCN1C(=O)C(=O)N(CC(=O)Nc2ccc(C(N)=O)cc2)C1=O	17.5	1.64 µM [falling, partial curve]	3.26 µM [falling, single point]
OCCN1CCN(c2ncnc3scc(-c4ccc(F)cc4)c23)CC1	-8.24	18.4 µM [rising, single point]	–
COc1cc(OC)cc(-c2nc(-c3cc4cc(C)ccc4nc3OC)no2)c1	-16.2	32.6 µM [falling, single point]	–
Cc1ccc(C2C(C(=O)O)c3ccccc3C(=O)N2C)o1 (stereo not given)	-0.965	29.1 µM [falling, single point]	–
COc1ccc(NC2=NCCCCC2)cc1	18.8	29.1 µM [rising, single point]	–
Cc1cc(NC(=O)CCC(=O)N(Cc2ccccc2)C(C(=O)NC2CCCC2)c2ccco2)no1 (stereo not given)	-7.89	5.62 µM [falling, single point]	–
Cc1ccc(NC(=O)COC(=O)C(NS(=O)(=O)c2ccc(Cl)cc2)C(C)O)cc1 (stereo not given)	14.5	–	–
C/C(=N\NC(=O)CN(c1ccc(C)cc1)S(C)(=O)=O)c1cccs1	18.9	8.2 µM [rising, partial curve, poor fit]	–
O=C(Nc1cnn(Cc2ccc(F)cc2)c1)c1cnn2c(C(F)F)cc(-c3ccccc3)nc12	-35.3	20.6 µM [falling, single point]	23.1 µM [falling, single point]
COc1cccc(/C(O)=C2/C(=O)C(=O)N(CCCN(C)C)C2c2cccc(Cl)c2)c1 (stereo not given)	2.51	29.1 µM [rising, single point]	–
CCO[C@H]1OC(C(=O)N2CCN(Cc3ccc4c(c3)OCO4)CC2)=C[C@@H](c2ccc(C(F)(F)F)cc2)[C@@H]1CCCO	-31.9	–	18.4 µM [falling, single point]
NS(=O)(=O)c1ccc(CCNC(=O)c2cc(-c3ccccn3)nc3ccc(Br)cc23)cc1	-3.74	0.00461 µM [rising, full curve, poor fit]	–
COc1ccc(OC)c(CNC(=O)CCC(=O)N2Cc3cccc(OC)c3Oc3ncccc32)c1	-4.78	29.1 µM [rising, single point]	–
Cc1ccc(-n2c(SCC(N)=O)nnc2-c2ccc(S(=O)(=O)N3CCCCC3)cc2)c(C)c1	34.3	6.51 µM [rising, partial curve, poor fit]	5.8 µM [rising, full curve, poor fit]
O=C(c1cccc(Cl)c1)N1CCC(C(=O)N2CCN(Cc3ccccc3)CC2)CC1	-30.2	–	16.4 µM [falling, single point]
O=c1cc(CO)oc(CN2CCC(Cc3ccccc3)CC2)c1O	0.207	0.326 µM [rising, partial curve]	–
O=C(NC1(C(F)(F)F)NC(=O)N(c2ccc(F)cc2)C1=O)c1cccs1 (stereo not given)	38	–	32.6 µM [rising, single point]

Five entries picked at random from those above, as already listed:
Compound	cell number change [%]	AC50 [1]	AC50 [2]
NS(=O)(=O)c1ccc(CCNC(=O)c2cc(-c3ccccn3)nc3ccc(Br)cc23)cc1	-3.74	0.00461 µM [rising, full curve, poor fit]	–
O=C(c1ccc2c(c1)OCCO2)N1CCN(c2ccc([N+](=O)[O-])cc2)CC1	43.6	16.4 µM [rising, single point]	16.4 µM [rising, single point]
O=C(NC1(C(F)(F)F)NC(=O)N(c2ccc(F)cc2)C1=O)c1cccs1 (stereo not given)	38	–	32.6 µM [rising, single point]
O=C(Nc1cnn(Cc2ccc(F)cc2)c1)c1cnn2c(C(F)F)cc(-c3ccccc3)nc12	-35.3	20.6 µM [falling, single point]	23.1 µM [falling, single point]
COc1ccc(OC)c(CNC(=O)CCC(=O)N2Cc3cccc(OC)c3Oc3ncccc32)c1	-4.78	29.1 µM [rising, single point]	–

(cont.)

Compound	cell number change [%]	AC50 [1]	AC50 [2]
CCc1nnc(NC(=O)c2ccc(OC)c(S(=O)(=O)N3CCCC3)c2)s1	11.9	–	–
CCOc1ccc(OCC)c(NC(=O)C2CCN(S(=O)(=O)c3ccc4c(c3)CC(C)N4C(C)=O)CC2)c1 (stereo not given)	-10.5	18.4 µM [rising, single point]	–
COc1ccc(CCNc2ccc(C(CC(N)=O)NC(=O)c3cc(OC)ccc3OC)cc2[N+](=O)[O-])cc1 (stereo not given)	16.8	–	0.00517 µM [rising, full curve, poor fit]
Cc1ccc(C(=O)OCC(=O)N2CC(=O)Nc3ccccc32)s1	–	0.00461 µM [falling, full curve, poor fit]	4.11 µM [falling, single point]
O=C(O)c1cnc(-c2ccccc2)nc1Sc1cccc(Cl)c1	–	29.1 µM [rising, single point]	–
O=C(NC(=S)N1CCCCC1)C12CC3CC(CC(C3)C1)C2	-6.84	–	–
CC(C)(C)NC(=O)C(=O)NCc1ccccn1	41.1	8.2 µM [rising, partial curve, poor fit]	6.51 µM [rising, full curve]
O=C(NC(=S)NCc1ccc(-c2nc3ccccc3s2)cc1)c1ccco1	-61.9	20.6 µM [falling, single point]	23.1 µM [falling, single point]
CSc1ccc(-c2nnn(Cc3ccccn3)n2)cc1	34.1	–	23.1 µM [rising, partial curve, poor fit]
O=C(NC(=S)Nc1ccc(S(=O)(=O)Nc2nccs2)cc1)c1ccc(F)cc1	-8.19	–	–
CCn1c(=NC(=O)c2ccc(S(=O)(=O)N(C)C)cc2)sc2cccc(OC)c21	-9.79	1.03 µM [rising, full curve, poor fit]	–
CC(=O)c1ccccc1NC(=O)C1CCCN(C(=O)c2ccc(Cl)cc2)C1 (stereo not given)	-11.7	7.31 µM [rising, partial curve, poor fit]	–
CCN(CC)S(=O)(=O)c1cc(NS(=O)(=O)c2ccccc2)ccc1C	22	29.1 µM [rising, single point]	–
CCC(C)NC(=O)CCCc1ccccc1 (stereo not given)	-9.26	1.46 µM [falling, partial curve, poor fit]	0.184 µM [falling, full curve, poor fit]
Cc1ccc(OCCC(=O)OCC(=O)NCCc2ccccc2)cc1	–	6.51 µM [rising, single point]	–
Cc1sc(NC(=O)CSc2nnnn2C)c(C#N)c1C	30.3	0.116 µM [rising, full curve, poor fit]	–
CCOC(=O)N1CCC(NC(=O)c2cc3c(-c4ccccc4F)nn(C)c3s2)CC1	-12.5	4.61 µM [rising, single point]	–
Cc1cc2[nH]c(=O)cc(-c3ccccc3)n2n1	-18.1	–	–
Nc1ccc2nc3c(=O)n(C4CCCCC4)c(=O)[nH]c3nc2c1	-78.6	23.1 µM [falling, partial curve]	20.6 µM [falling, partial curve]

— PubChem BioAssay AID2685 (National Center for Advancing Translational Sciences (NCATS), 2010)
